# Results deposited as PubChem BioAssay AID602196 (INSERM, 2012).
# Purpose: 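Knock-downs that protect lung cancer cells from cisplatin or sensitise them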
# Cells: human A549 lung cancer cells
# Reagents: siRNA pair against human genes
# Duration: 48 h transfection before cisplatin; time from cisplatin to read-out not stated
# Treatment: cisplatin at a dose killing half of control-siRNA cells; exact dose and duration not given
# Measurement: 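Shift in cisplatin death relative to control siRNA, from -50 (all cells die) to +50 (no cells die); siRNAs harmful on their own scored 0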
# Reading the numbers: two-siRNA summed score (-2 to +2): higher = both siRNAs protect from cisplatin killing; -2 means both sensitise; mean protection from cisplatin (shift in death) and protection from cisplatin (shift in death), siRNA C and protection from cisplatin (shift in death), siRNA D: higher = protection from cisplatin killing
# Rule for the call: 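siRNAs harmful alone (LDH or WST-1) get 0; others get +1 for less and -1 for more cisplatin killing; genes are active when the two siRNAs give the same sign, summing to ±2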
# Meaning of the calls: active = both siRNAs shift cisplatin killing the same way; inactive = no consistent shift, or siRNA harmful alone
# The deposit covers about 23,000 reagents; this is a part drawn at random. 455 of them (2%) were called active. 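Active includes both protection and sensitisation; some change values fall well beyond the stated -50 to +50 range.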 A number with no mark means an inactive call. Reagent sequences are not shown. The record does not give: the amount of reagent.
gene knocked down,PubChem SID,two-siRNA summed score (-2 to +2),mean protection from cisplatin (shift in death) (%),"protection from cisplatin (shift in death), siRNA C (%)","protection from cisplatin (shift in death), siRNA D (%)"
SINHCAF,SID131516133,0,10.3,13,7.6
LOC391491,SID131513368,0,6.5,22.6,-9.6
KRT17,SID131501810,-1,-7.2,5.9,-20.4
IZUMO2,SID131506779,0,-1,-1.4,-0.6
NEFL,SID131512270,0,5.3,-9,19.5
LOC389848,SID131518893,0,40.4,35.1,45.6
PCDHA1,SID131522969,2 (active),15,11.8,18.2
TCF20,SID131510792,0,3.6,-5.4,12.7
TXNDC16,SID131501015,-1,-13.3,1.7,-28.4
TNFSF8,SID131522705,1,22,19,25
PANK1,SID131523118,2 (active),20.5,20,21
UAP1,SID131520412,1,9.8,16.8,2.8

In a second layout: 3 of the entries above.
{"gene knocked down": "KRT17", "PubChem SID": "SID131501810", "two-siRNA summed score (-2 to +2)": -1, "mean protection from cisplatin (shift in death) (%)": -7.2, "protection from cisplatin (shift in death), siRNA C (%)": 5.9, "protection from cisplatin (shift in death), siRNA D (%)": -20.4}
{"gene knocked down": "IZUMO2", "PubChem SID": "SID131506779", "two-siRNA summed score (-2 to +2)": 0, "mean protection from cisplatin (shift in death) (%)": -1, "protection from cisplatin (shift in death), siRNA C (%)": -1.4, "protection from cisplatin (shift in death), siRNA D (%)": -0.6}
{"gene knocked down": "NEFL", "PubChem SID": "SID131512270", "two-siRNA summed score (-2 to +2)": 0, "mean protection from cisplatin (shift in death) (%)": 5.3, "protection from cisplatin (shift in death), siRNA C (%)": -9, "protection from cisplatin (shift in death), siRNA D (%)": 19.5}

Next records:
gene knocked down,PubChem SID,two-siRNA summed score (-2 to +2),mean protection from cisplatin (shift in death) (%),"protection from cisplatin (shift in death), siRNA C (%)","protection from cisplatin (shift in death), siRNA D (%)"
FLNC,SID131501466,-1,-9.6,-20.6,1.4
SSX1,SID131517194,0,12.7,16.5,8.8
LOC390498,SID131519454,1,5.7,-3.1,14.5
LOC390988,SID131514192,0,7.5,9,6
FTSJ3,SID131514943,0,8.4,11.5,5.4
SLC35A4,SID131511914,0,4.9,2.8,7
CCNT2,SID131507576,0,0,-6.4,6.4
LYG1,SID131513178,0,6.3,5.3,7.3
SNAI3-AS1,SID131512480,0,5.5,8.3,2.7
LOC392176,SID131513490,0,6.6,4.7,8.6
MIGA1,SID131512364,0,5.4,5.2,5.6
